# Reference: US10597409B2, “Water-soluble triazapyridinophane-based complexing agents and corresponding fluorescent lanthanide complexes” (CISBIO BIOASSAYS, priority 2015, dated 2020)
# Some of these results come from one statement about several compounds together.
# Experiment: Photophysical measurements of the lanthanide complexes (absorption, emission, brightness, lifetime)
# Format: physicochemical
row,Absorption λmax,Structure (SMILES)
1,320-330 nm,COC(=O)COc1ccc(C#Cc2cc3nc(c2)CN(CC(=O)O)Cc2cc(C#Cc4ccc(OCC(=O)OC)cc4)cc(n2)CN(CC(=O)O)Cc2cc(C#Cc4ccc(OCCCN)cc4)cc(n2)CN(CC(=O)O)C3)cc1 [Complex 62]
2,320-330 nm,COC(=O)COc1cc(OC)c(-c2cc3nc(c2)CN(CC(=O)O)Cc2cc(-c4c(OC)cc(OCC(=O)OC)cc4OC)cc(n2)CN(CC(=O)O)Cc2cc(-c4ccc(OCCCN)cc4)cc(n2)CN(CC(=O)O)C3)c(OC)c1 [Complex 63]
